Reference: the supplement of paper PMC5407854, “Inhibitor of ppGalNAc-T3-mediated O-glycosylation blocks cancer cell invasiveness and lowers FGF23 levels” (eLife, 2017)
Whole data set: some 1,700 compounds, median “T2 sensor activation Q score (MG/GFP ratio z-score vs DMSO controls)” near 0.3, cut for the highest 2% near 1.9. This is one part of the list.

Each molecule was assayed on ppGalNAc-T2 sensor (assay: T2 sensor activation Q score (MG/GFP ratio z-score vs DMSO controls) (SD units); higher = more sensor activation (inhibition of ppGalNAc-T2 glycosylation)). Details: HEK293 sensor cells; 10 µM; 6 h.
Experimental: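 Cells were treated with compound at 10 uM for 6 h, then MG/GFP ratio was read by flow cytometry (10,000 cells per well, duplicate wells). Q = (R - R_neg)/SD_neg relative to DMSO vehicle controls; the signal rises when the glycosyltransferase is inhibited.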

SMILES	T2 sensor activation Q score
Cc1cc(C)n(C(N)=NC(=O)c2ccccc2)n1	1.3
Cc1ccc2c(c1)sc1nncn12	0.8
Cc1cc(=O)c2c(o1)C(=O)c1occc1C2=O	1.35
CN1CCC(=C2c3ccccc3C(O)c3ccccc32)CC1 (stereo not given)	0.95
Cn1nnc2c(C(N)=O)ncn2c1=O	-1.3
c1ccc2nc(NN=C3CCCCC3)ccc2c1	-0.1
CCN(CC)c1ccc(/C=C/c2cc(-c3ccccc3)c3ccccc3n2)cc1	-6.65
c1ccc(NCCSc2nc3ccccc3s2)cc1	0.25
C[C@]12CC[C@H](O)CC1=CC[C@@H]1[C@@H]2CC[C@]2(C)C(c3cccnc3)=CC[C@@H]12	-1
CCOc1ccc(NC(=O)Nc2cc(C(C)C)c(O)cc2C)cc1	-0.85
O=C1C=C(c2ccccc2)OC(=O)C1C(=O)c1ccccc1 (stereo not given)	0.65
C#CCNc1ccc(C(=O)OCC)cc1	-1.25
CC1=CC2C(C(O)CC3(C)C2CC(C)C32OCOC23COCO3)C2(C)CC(=CO)C(=O)C=C12 (stereo not given)	1.7
CNc1ncn(-c2c(C)cccc2C)c(=O)n1	-0.6
O=[N+]([O-])c1cc(F)c2cccnc2c1O	1.7
Nc1cc2c3c(cccc3c1)C(=O)N(CCN1CCCC1)C2=O	-0.45
Cc1ccc(S(=O)(=O)N2CC=C(N)N2)cc1	0.25
COc1ccc(-c2cc(-c3ccccc3)c(-c3ccccc3)nn2)cc1	-0.95
Cc1ccncc1C(N)=O	1.85
CCOC(=O)c1csc(-c2ccc(COC(=O)c3ccccc3)o2)n1	-1
CC(C)(C)C1=NN=C2c3ccccc3C(=O)C21 (stereo not given)	-0.7
CN(C)Cc1c[nH]c2nccnc12	-0.8
Cc1c(O)cnc2nn(-c3ccccc3)c(=N)n12	1.4
c1ccc(-c2nc3ccccc3s2)nc1	0.6
Brc1csc2ncccc12	-0.1
O=[N+]([O-])c1ccc(Sc2ncccn2)c([N+](=O)[O-])c1	1
C1CCc2nc3c(nc2C1)CCCC3	0.85

Reformatted: entries from further up.
Cc1cc(C)n(C(N)=NC(=O)c2ccccc2)n1
  T2 sensor activation Q score: 1.3
Cc1ccc2c(c1)sc1nncn12
  T2 sensor activation Q score: 0.8

Next part.

SMILES	T2 sensor activation Q score
COc1cc(/C=C2\CCOC2=O)cc(OC)c1OC	0
Cn1c(=O)c2c(nc(OCCc3ccccc3)n2C)n(C)c1=O	-0.25
CO[C@H]1C[C@@H]2CC[C@@H](C)[C@@](O)(O2)C(=O)C(=O)N2CCCC[C@H]2C(=O)O[C@H]([C@H](C)C[C@@H]2CC[C@@H](OC(=O)C(C)(CO)CO)[C@H](OC)C2)CC(=O)[C@H](C)/C=C(\C)[C@@H](O)[C@@H](OC)C(=O)[C@H](C)C[C@H](C)/C=C/C=C/C=C/1C	-0.5
COC1OC2COC(c3ccccc3)OC2C(=O)C1NC(=O)c1ccccc1 (stereo not given)	0.9
O=C(O)/C(Cc1cn[nH]n1)=N\O	-0.35
CNC(=O)OCN1C(=O)C2CC=CCC2C1=O (stereo not given)	0.95
Cc1ccc(NC(=O)N2CCN(C)CC2)cc1NC(=O)N1CCN(C)CC1	0.45
CN(C)c1ccc(/C=C2/C=C(c3ccc4c(c3)CCCC4)OC2=O)cc1	-0.75
C1CCC(NC2=NCCO2)CC1	-0.8
Cc1cccc(C)c1NC(=O)NCc1ccco1	-0.85
Cc1nc(Nc2ccc(F)cc2)nc(Nc2ccc(F)cc2)c1[N+](=O)[O-]	-0.35
Cc1ccc(S(=O)(=O)NNC(=O)C23CCC(CC2)C3)cc1	1.95
C=CCN=C(NC#N)SC	1.35
Nc1ncnc2c1ncn2C=C=CCO	0.15
Cc1ccc(Nc2nccc(N(C)c3ccc4c(C)n(C)nc4c3)n2)cc1S(N)(=O)=O	0.95
COc1ccc2c(C)cc(C)nc2n1	-0.2
CC(C)(C)C(=O)Nc1ccc(NC(=O)C(C)(C)C)cc1	-1.4
CCOC(=O)c1[nH]c(CO)c(C(=O)OCC)c1C	0.15
Cc1nc(N)nc(Cl)c1CCC1OCCO1	1.7
CCCOc1ccc(-c2nc(-c3ccc(N)cc3)cs2)cc1	0.2
COC(=O)C1=C(C)NC(C)=C(C(=O)OC)C(N2C(=O)CCC2=O)C1 (stereo not given)	-0.65
COC(=O)c1cc(C)c(C)cc1NC1OC(CO)C(O)C1O (stereo not given)	1.65
Cc1c(O)ccc2c(O)c(NC(=O)c3ccc4c(c3)CCC(C)(C)O4)c(=O)oc12	0.45
CN1C=C/C(=C\[N+](=O)[O-])N(C)C1=O	0.7
O=C(Nc1nnc(C(F)(F)F)s1)c1c(F)cccc1F	-0.85
CN1C(=O)c2ccccc2Cc2c(NCc3ccccc3)ncnc21	-0.35
O=c1cc[nH]c2c(Cl)cccc12	-1

Entries shown so far that have a Cl atom (two):
SMILES	T2 sensor activation Q score
Cc1nc(N)nc(Cl)c1CCC1OCCO1	1.7
O=c1cc[nH]c2c(Cl)cccc12	-1

(next part)

SMILES	T2 sensor activation Q score
Nc1nc(N)c(N=Nc2ccc(S(N)(=O)=O)cc2)c(=O)[nH]1	0.85
O=C(Nc1ccccc1)C1=C(Nc2ccccc2)CSC1	-1.55
Cc1cc2nc(-c3ccccn3)c(-c3ccccn3)nc2cc1C	2.4
Nc1ccc(Nc2ccccc2)c(S(=O)(=O)O)c1	0.65
NC(=O)Nc1ccc(Nc2ccccc2)cc1	0.35
O=C(O)c1cc2cc(OCc3ccccc3)ccc2[nH]1	0.95
COc1cc(O)c(C(=O)/C=C/c2ccccc2)c(OC)c1	-0.35
CCSc1nc(=S)cc(C)[nH]1	-0.1
CC(C)Oc1ccc(C(=O)O)cc1	0.15
O=[N+]([O-])c1ccc2c3ccccc3[s+]([O-])c2c1 (stereo not given)	0.25
c1ccc2c(c1)Nc1cc3ccccc3cc1S2	1.75
CS/C(=C\c1ccc(C(=O)c2ccc(C)cc2)n1C)[S+](C)[O-] (stereo not given)	5.35
O=c1[nH]cnc2c1ncn2Cc1ccc([N+](=O)[O-])cc1	-0.6
CC1CCCC(CC(=O)O)(CC(=O)O)C1 (stereo not given)	0.2
CCOC(=O)Nc1c(Cl)n(C)c(=O)n(C)c1=O	0.8
CCOC(=O)C1(C#N)C(=O)CSC1=Nc1ccccc1Cl (stereo not given)	0.8
C=CCNC(=S)NCC	0.4
CSc1nc(Cl)c(Br)c(Nc2c[nH]c(=O)[nH]c2=O)n1	0.7
Cc1ccc(NC(=O)N2CCCCC2)cc1[N+](=O)[O-]	0.15
CSc1n[nH]c(-c2cccs2)n1	0.45
CCC(=Cc1ccc(CC)cn1)CC	1.85
Cn1ncc2c(Sc3ccc(Cl)cc3)ncnc21	1.3
Cn1ncc2c(Nc3ccc(Br)cc3)nc(Nc3ccc(Br)cc3)nc21	0.35
Nc1ccccc1-n1nc2ccc3ccccc3c2n1	-1.5
O=C(c1ccccc1)c1ccc(Sc2ccc([N+](=O)[O-])cc2)cc1	7.7
CN1CCN(C(=O)Nc2ccc([N+](=O)[O-])cc2)CC1	0.5
